Source: PubChem BioAssay AID540256 (National Center for Advancing Translational Sciences (NCATS), 2011)
Where “and” joins values, the source holds several entries; their conditions need not be identical. Equal entries are not always repeated. Hit rate of the full screen: of about 300,000 compounds, about 3,700 (1.2%) were called active. Inconclusive results, whose numbers are uncertain, are shown with a selection of clear calls. Calls follow the shape of the full dose curve; tested in HEK293 cells. A potency beside an inconclusive call is a rough fit, not a confirmed value.
% is scaled to controls: 0 for no effect and ±100 for the full control effect; potency is read from the fitted curve at half-maximal effect.

Assay: qHTS for Inhibitors of binding or entry into cells for Lassa Virus; also: nearly all actives have a fitted effect of over 50% in size
Conditions: Lassa virus pseudotype entry inhibition, cell reporter; activity change, negative = inhibition: at 37.9 µM (top of the series) unless noted
For `COc1ccccc1CNC(=O)c1ccc(S(=O)(=O)N2CCCC2)cc1`, the “activity change, negative = inhibition” value was inactive: -5.87%. With `COc1cccc(OC)c1C(=O)NNC(=O)c1cccnc1` the Potency was inconclusive: 5.62 µM [inhibitor, single point]. For `CN(C)S(=O)(=O)c1ccc(C(=O)N2CCN(C(=O)C3CCCO3)CC2)cc1` (configuration not stated), the “activity change, negative = inhibition” value was inactive: 11.8%. With `CC(=O)Nc1ccc(NC(=O)c2c([N+](=O)[O-])cnn2C)cc1` the “activity change, negative = inhibition” value was inactive: -12.6% [at 46.1 µM]. In the case of `C=CC(O)(C#CCN(CC)CC)c1ccccc1` (configuration not stated), the “activity change, negative = inhibition” value is reported as inactive: 11.8%. For `CCOC(=O)/C(=C\c1cn(C)c2ccccc12)[N+](=O)[O-]`, the “activity change, negative = inhibition” value was inactive: 0.203%. In the case of `COc1ccc(-c2nc(-c3cc4cc(Br)ccc4oc3=O)cs2)cc1`, the “activity change, negative = inhibition” value is reported as inactive: 26.5% [at 46.1 µM]. For `Cc1ccc(-c2nc(-c3ccccn3)no2)cc1`, the Potency was active: 0.316 µM. With `Nc1nc(SCc2ccccc2Cl)c2ncn(C3OC(CO)C(O)C3O)c2n1` (configuration not stated) the Potency was inconclusive: 6.31 µM [inhibitor, single point]. With `CCc1ccc(S(=O)(=O)c2cn(C)c3cc(N4CCOCC4)c(F)cc3c2=O)cc1` the “activity change, negative = inhibition” value was inactive: -19% [at 46.1 µM]. For `Cc1cccc(Cn2cc(/C=C/[N+](=O)[O-])c3ccccc32)c1`, the Potency was inconclusive: 14.6 µM [inhibitor, partial curve, poor fit]. With `FC(F)(F)c1cnc(-c2cnc(-c3ccncc3)nc2)c(Cl)c1` the “activity change, negative = inhibition” value was inactive: -1.48%. In the case of `Cc1cc(C)c(S(=O)(=O)N2CCC(n3c(C(F)(F)F)nc4cccnc43)CC2)c(C)c1`, the “activity change, negative = inhibition” value is reported as inactive: 1.89% [at 46.1 µM]. For `O=C(c1ccc([N+](=O)[O-])cc1)N1CCN=C1SCc1ccccc1`, the Potency was inconclusive: 12.6 µM [inhibitor, partial curve, poor fit]. With `CCOc1ccc(/C(CCC(=O)O)=N/NC(=O)c2cccc(S(=O)(=O)Nc3ccccc3OC)c2)cc1` the “activity change, negative = inhibition” value was inactive: -6.42% [at 46.1 µM]. In the case of `Cn1c(CNc2ccc(Br)cc2)nc2ccccc21`, the Potency is reported as inconclusive: 17.8 µM [inhibitor, single point]. With `CNC(=O)c1cccc(C#Cc2cncnc2Nc2ccc(OCc3cccc(F)c3)c(Cl)c2)c1` the Potency was active: 0.791 µM. For `Cc1ccccc1NC(=O)C(=O)NCCc1ccccc1`, the Potency was inconclusive: 1.26 µM [inhibitor, partial curve, poor fit]. For `COCCCNCCCOc1ccc(C(C)(C)c2ccccc2)cc1`, the Potency was inconclusive: 22.4 µM [inhibitor, partial curve, poor fit]. In the case of `Clc1ccc(Cl)c(OCc2cc(-c3ccccc3Cl)on2)c1`, the Potency is reported as inconclusive: 4.47 µM [activator, partial curve, poor fit]. In the case of `CCOC(=O)c1sc(NC(=O)COC(=O)c2ccco2)nc1C`, the Potency is reported as inconclusive: 3.55 µM [inhibitor, single point]. With `CCC(O)c1nc2ccccc2n1CCc1ccccc1` (configuration not stated) the “activity change, negative = inhibition” value was inactive: -10.9% [at 46.1 µM]. With `Cn1nnnc1SCC(=O)Nc1cccc([N+](=O)[O-])c1` the “activity change, negative = inhibition” value was inactive: 11.8%. In the case of `O=C(COc1ccc(Cl)cc1Cl)N/N=C/c1cccnc1`, the “activity change, negative = inhibition” value is reported as inactive: -13.3% [at 46.1 µM]. In the case of `Cc1cccc(C)c1N1C(=O)CC(N2CCSCC2)C1=O` (configuration not stated), the Potency is reported as inconclusive: 0.708 µM [inhibitor, partial curve, poor fit]. With `COC(=O)c1sc2cccc(F)c2c1S(=O)(=O)N1CCN(c2cccc(OC)c2)CC1` the Potency was inconclusive: 3.16 µM [inhibitor, partial curve, poor fit]. With `CNc1nc(Cl)nc(Nc2ccccc2)n1` the Potency was inconclusive: 9.2 µM [activator, partial curve]. In the case of `O=C(NC1=NCCS1)c1sc2ccccc2c1Cl`, the Potency is reported as inconclusive: 22.4 µM [inhibitor, single point]. In the case of `CC(C)(C)OC(=O)N/N=C/c1ccc(Br)cc1`, the Potency is reported as inconclusive: 35.5 µM [inhibitor, single point]. With `Cc1ccc(NC(=O)C(=O)NCC2CCCN2S(=O)(=O)c2cccs2)c(C)c1` (configuration not stated) the Potency was inconclusive: 5.01 µM [inhibitor, partial curve]. With `CCOC(=O)c1nc(C)n(-c2ccc([N+](=O)[O-])cc2)n1` the Potency was inconclusive: 6.31 µM [activator, single point]. With `COC(=O)c1ccc2c(=O)n(C3CCCCC3)c(SCC#N)nc2c1` the Potency was inconclusive: 14.6 µM [inhibitor, partial curve, poor fit]. For `Cc1c(Br)cc(C(=O)N2CCN(CCO)CC2)c(C)c1C`, the “activity change, negative = inhibition” value was inactive: -9.23%. In the case of `CCOC(=O)c1sc2nc3c(SCCC#N)cc(C(=O)c4cc(F)ccc4O)cn3c(=O)c2c1C`, the “activity change, negative = inhibition” value is reported as inactive: 7.59%. With `O=C(Nc1ccc2c(c1)CCC2)c1ccc(F)cc1` the Potency was inconclusive: 10 µM [inhibitor, single point]. For `CCc1c(C)sc2c1CCN(Cc1ccccc1)C2c1ccccc1` (configuration not stated), the Potency was inconclusive: 11.2 µM [inhibitor, partial curve]. With `CCC[C@H]1CN(c2ccc(OC)cc2)C(=O)[C@H]1CC(=O)Nc1ccccc1` the Potency was inconclusive: 3.15 µM [inhibitor, full curve, poor fit]. In the case of `Cc1cc(C)c(C(=O)COC(=O)c2cccnc2Cl)c(C)c1`, the “activity change, negative = inhibition” value is reported as inactive: 1.82% [at 46.1 µM]. With `CC(=NNc1ccc2ccccc2n1)c1ccccc1O` the Potency was active: 3.16 µM. For `O=C(CSc1ccccc1)Nc1cccc(S(=O)(=O)N2CCCC2)c1`, the Potency was inconclusive: 32.6 µM [inhibitor, single point]. For `O=C1CC(c2cccc(Cl)c2)Cc2nc(N3CCOCC3)ncc21` (configuration not stated), the Potency was inconclusive: 22.4 µM [inhibitor, single point]. With `CCOc1ccc(NC(=O)c2c(C)nn(-c3ccc(F)cc3)c2-n2cccc2)cc1` the Potency was inconclusive: 35.5 µM [activator, single point]. For `C=CCc1ccccc1OCCSc1nc(-c2cccs2)nc2cc(=O)[nH]n12`, the “activity change, negative = inhibition” value was inactive: 9.71% [at 46.1 µM]. For `CN(C)C(=O)Oc1ccc(OC(=O)N(C)C)cc1`, the Potency was inconclusive: 35.5 µM [activator, single point]. In the case of `Cc1ccc(/C=N/N2C(=S)SC(C)(C)C2N(O)C(=O)Nc2ccc([N+](=O)[O-])cc2)cc1` (configuration not stated), the “activity change, negative = inhibition” value is reported as inactive: -3.78%. In the case of `CCCC(=O)Nc1ccccc1NC(=O)c1ccc(OC)cc1`, the Potency is reported as inconclusive: 3.98 µM [inhibitor, partial curve, poor fit]. In the case of `CCCCN=C1CC(C)(C)CC(=O)/C1=C(/O)CCC`, the Potency is reported as inconclusive: 3.55 µM [inhibitor, single point]. In the case of `O=C(CCCN1C(=O)/C(=C/c2cccc(Br)c2)SC1=S)Nc1cccnc1`, the Potency is reported as inconclusive: 20 µM [inhibitor, single point]. With `CCOC(=O)C1CCN(CC(=O)Nc2cc(C)c3c(=O)oc4ccccc4c3n2)CC1` the Potency was inconclusive: 1.12 µM [inhibitor, full curve, poor fit]. In the case of `O=C(NCc1ccccc1)C1CCN(c2nc(-c3ccccc3)nc3c2CCC3)CC1`, the Potency is reported as inconclusive: 35.5 µM [inhibitor, single point]. In the case of `COc1cc(/C=N\Nc2nc3ccccc3[nH]2)cc(OC)c1OC`, the “activity change, negative = inhibition” value is reported as inactive: -6.94%. With `CCN(CC)c1ccc(C(=C2C=CC(=[N+](CC)CC)C=C2)c2ccccc2)cc1` the Potency was active: 0.562 µM. In the case of `Cc1ccc(C)c(OCc2cc(C(=O)N3CC[C@@H]4CCCC[C@H]4C3)no2)c1`, the “activity change, negative = inhibition” value is reported as inactive: 0.171%. For `O=C(CCC1CCCN(C(=O)CCC(F)(F)F)C1)NCc1ccc(F)c(F)c1` (configuration not stated), the “activity change, negative = inhibition” value was inactive: -8.32%. For `Nn1c(-c2cccs2)nc2sc3c(c2c1=O)CCCC3`, the Potency was inconclusive: 35.5 µM [inhibitor, single point]. For `CN(C)S(=O)(=O)c1cccc(NC(=O)c2c[nH]c3ccccc23)c1`, the Potency was inconclusive: 35.5 µM [inhibitor, single point]. With `Nc1nonc1-c1nc2cnccc2n1C1CC1` the Potency was inconclusive: 25 µM [inhibitor, single point]. In the case of `CCOC(=O)N1CCN(Cc2nc3cc(NC(=O)CC)ccc3n2C(C)C)CC1`, the “activity change, negative = inhibition” value is reported as inactive: -23.6% [at 46.1 µM]. For `CCc1ccc(-n2nc(CO)c(C(=O)NC(C)c3ccc(Cl)cc3)n2)cc1` (configuration not stated), the Potency was inconclusive: 2.82 µM [inhibitor, full curve]. In the case of `Cc1ccc(N(CC(=O)NC(C)c2ccccc2)S(=O)(=O)c2c(C)n[nH]c2C)cc1` (configuration not stated), the Potency is reported as inconclusive: 6.31 µM [inhibitor, partial curve]. With `O=C(N/N=C/c1ccccc1)c1cc(=O)[nH]c2ccccc12` the Potency was inconclusive: 5.01 µM [activator, partial curve, poor fit]. In the case of `O=C(NC1CCCC1)c1ccc2c(=O)n(Cc3ccccc3)c(SCc3ccc([N+](=O)[O-])cc3)nc2c1`, the Potency is reported as inconclusive: 1.78 µM [inhibitor, partial curve, poor fit]. For `Oc1ccc2ccccc2c1SSc1c(O)ccc2ccccc12`, the Potency was inconclusive: 20.6 µM [inhibitor, single point]. With `CCOC(=O)c1c(NC(=O)CCN2CCOCC2)sc(C)c1-c1ccccc1` the Potency was active: 3.16 µM. For `CCN(CC)CCNC(=S)Nc1ccc2nc(N3CCN(C)CC3)cc(C)c2c1`, the Potency was inconclusive: 35.5 µM [inhibitor, single point]. In the case of `O=C(CN(Cc1ccc(F)cc1)C(=O)CCC(=O)Nc1nccs1)NCC1CCCO1` (configuration not stated), the Potency is reported as inconclusive: 7.08 µM [activator, partial curve, poor fit]. For `Clc1ccc(Cn2c(CN3CCCC3)nc3ccccc32)cc1`, the Potency was “inactive and inconclusive: 29.1 µM [inhibitor, single point]”. For `CC(C)(C)OC(=O)N[C@@H](Cc1ccccc1)C(=O)N1CCC(C(=O)NCC(=O)O)CC1`, the Potency was inconclusive: 1.26 µM [inhibitor, single point]. For `COc1ccc2cc(Br)ccc2c1CC(=O)NC(C)C`, the “activity change, negative = inhibition” value was inactive: 3.9%. With `N#CC1=C(SCC(=O)NCc2ccccc2)NC(=O)CC1c1ccco1` (configuration not stated) the “activity change, negative = inhibition” value was inactive: 0.792%. For `CC(=O)NC(C)C(=O)OCC(=O)Nc1ccc(Br)cc1` (configuration not stated), the “activity change, negative = inhibition” value was inactive: -7.99%. For `O=C1N[C@@H](Cc2ccccc2)C(=O)N2CCC[C@@H]12`, the Potency was inconclusive: 35.5 µM [activator, partial curve, poor fit].
